Measured data: PubChem BioAssay AID1259308 (NCATS, 2017)

- Aim: 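Candidate targets for better recombinant protein yield in mammalian cells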 (primary screen)
- System: human HEK293 embryonic kidney cells stably expressing firefly luciferase (HEK-CMV-Luc2-Hygro)
- Reagents: single siRNA against human genes, 0.8 pmol siRNA per well
- Time to read-out: 72 h
- Read-out: 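Luciferase light (ONE-Glo) measured on one replicate plate set and viability (CellTiter-Glo) on the other, scaled to a negative control siRNA, with robust z-scores and luciferase per cell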
- Reading the numbers: total luciferase, z-score and total luciferase, % of control: higher = more reporter protein produced; luciferase per cell, z-score: higher = more reporter output per viable cell
- Active means: 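Active when the median/MAD z-score for overall luciferase is greater than 3; a gene was taken forward for validation with new siRNAs if at least two of its three siRNAs passed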
- Calls: active = raised luciferase; inactive = no rise
Here is one part, drawn at random, of about 59,000 reagents. Of all reagents, about 1,510 (2.6%) are marked active. 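Calls use total luciferase alone and ignore viability, so some active siRNAs may act by altering cell number.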 The numbers tell different reagents against one gene apart. Not all columns of the deposit are shown.

Gene | reagent no. | total luciferase, z-score | total luciferase, % of control | luciferase per cell, z-score | Call
FLT3 | 1 | 0.811 | 98 | 0.955 | inactive
FLT3 | 2 | -0.215 | 77.6 | -0.565 | inactive
FLT3 | 3 | 0.601 | 93.8 | -0.0285 | inactive
CCDC51 | 1 | 0.909 | 100 | 0.704 | inactive
CCDC51 | 2 | 2.9 | 140 | 1.95 | inactive
CCDC51 | 3 | 1.35 | 109 | 0.391 | inactive
CYP2R1 | 1 | 0.18 | 85.5 | -0.243 | inactive
CYP2R1 | 2 | -0.355 | 74.8 | -0.56 | inactive
CYP2R1 | 3 | 1.33 | 108 | 1.26 | inactive
MUC3A | 1 | -0.536 | 71.2 | 0.0855 | inactive
MUC3A | 2 | 0.967 | 101 | 1.23 | inactive
MUC3A | 3 | 1.18 | 105 | 0.933 | inactive
BAHD1 | 1 | 1.06 | 103 | 0.989 | inactive
BAHD1 | 2 | 1.26 | 107 | 0.982 | inactive
BAHD1 | 3 | -1.97 | 42.8 | -3.48 | inactive
CARD8 | 1 | 1.49 | 112 | 1.36 | inactive
CARD8 | 2 | 0.0463 | 82.8 | 0.155 | inactive
CARD8 | 3 | -0.354 | 74.8 | -0.766 | inactive
MYADML2 | 1 | -1.03 | 61.5 | -1.16 | inactive
MYADML2 | 2 | -0.86 | 64.8 | -0.52 | inactive
MYADML2 | 3 | 0.485 | 91.5 | 0.767 | inactive
MT1M | 1 | -0.38 | 74.3 | 1.43 | inactive
MT1M | 2 | -0.355 | 74.8 | -0.833 | inactive
MT1M | 3 | -1.07 | 60.7 | -1.18 | inactive
FZD9 | 1 | 1.15 | 105 | 0.792 | inactive
FZD9 | 2 | 0.194 | 85.7 | 0.443 | inactive
FZD9 | 3 | 0.037 | 82.6 | -0.478 | inactive
OSGIN2 | 1 | -0.553 | 70.9 | -0.437 | inactive
OSGIN2 | 2 | -0.617 | 69.6 | 0.752 | inactive
OSGIN2 | 3 | -0.374 | 74.4 | -0.188 | inactive
MYOF | 1 | 0.00422 | 82 | -0.16 | inactive
MYOF | 2 | -1.38 | 54.5 | -1.74 | inactive
MYOF | 3 | 0.317 | 88.2 | 0.00243 | inactive
IL12B | 1 | -0.296 | 76 | -0.576 | inactive
IL12B | 2 | 0.0654 | 83.2 | -0.493 | inactive
IL12B | 3 | 1.02 | 102 | -0.264 | inactive
RASSF9 | 1 | -0.28 | 76.3 | -0.247 | inactive
RASSF9 | 2 | 0.115 | 84.2 | -0.379 | inactive
RASSF9 | 3 | 0.421 | 90.3 | 0.0749 | inactive
WDR86 | 1 | -0.718 | 67.6 | -0.482 | inactive
WDR86 | 2 | -0.447 | 73 | -0.601 | inactive
WDR86 | 3 | -1.16 | 58.8 | -0.309 | inactive
NFATC2 | 1 | -0.564 | 70.7 | -0.208 | inactive
NFATC2 | 2 | -0.0724 | 80.4 | 0.399 | inactive
NFATC2 | 3 | 2.05 | 123 | 2.88 | inactive
B4GALT4 | 1 | -0.417 | 73.6 | -0.548 | inactive
B4GALT4 | 2 | 4.16 | 165 | 3.07 | active
B4GALT4 | 3 | -0.49 | 72.1 | -0.694 | inactive
FOXR1 | 1 | -1.83 | 45.5 | -1.72 | inactive
FOXR1 | 2 | -1.31 | 55.8 | -0.618 | inactive
FOXR1 | 3 | -0.945 | 63.1 | -0.0947 | inactive
TESPA1 | 1 | 0.209 | 86 | 0.625 | inactive
TESPA1 | 2 | -1.02 | 61.6 | -0.315 | inactive
TESPA1 | 3 | -2.51 | 31.9 | -1.83 | inactive
SNTB2 | 1 | -0.0772 | 80.4 | -0.536 | inactive
SNTB2 | 2 | 3.75 | 157 | 3.35 | active
SNTB2 | 3 | -1.02 | 61.6 | -0.91 | inactive

Copied from above (4 entries):
Gene | reagent no. | total luciferase, z-score | total luciferase, % of control | luciferase per cell, z-score | Call
FLT3 | 1 | 0.811 | 98 | 0.955 | inactive
FLT3 | 2 | -0.215 | 77.6 | -0.565 | inactive
FLT3 | 3 | 0.601 | 93.8 | -0.0285 | inactive
CCDC51 | 1 | 0.909 | 100 | 0.704 | inactive
